Results from one PubChem assay

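Vaccinia-infected cells with a two-color viral stage reporter; Venus fluorescence read on a plate reader; the cell line is not named here; timing not stated here. The test concentration is not given here. Percent change in Venus reporter signal; lower (more negative) values mean stronger inhibition of that viral stage.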

Values are in %. How 0% and 100% were set is not given here. Common to all entries: measured here: Venus reporter, other viral stage. This is a side read-out of the assay, for part of the compounds, not drawn at random.

compound,activity change (Venus) (%)
Cc1ccc(S(=O)(=O)N(C)C[C@@H]2OCCCC[C@@H](C)Oc3ccc(NS(=O)(=O)c4ccc(F)cc4)cc3C(=O)N([C@H](C)CO)C[C@H]2C)cc1,-43.89
C[C@H]1CN([C@@H](C)CO)S(=O)(=O)c2ccc(C3=CCCCC3)cc2O[C@@H]1CN(C)Cc1cccc(C(=O)O)c1,-38.5
COc1ccc(CN(C)C[C@H]2Oc3ccc(NC(=O)Nc4ccc(C(F)(F)F)cc4)cc3C(=O)N([C@@H](C)CO)C[C@H]2C)cc1,-85.95
CCCN(C)C[C@@H]1Oc2cc(/C=C/c3ccccc3)ccc2S(=O)(=O)N([C@@H](C)CO)C[C@@H]1C,-31.37
COCC(=O)NC[C@H]1N[C@H](CO)[C@H]1c1ccc(-c2ccccc2F)cc1,-33.58
C[C@@H]1CN([C@@H](C)CO)C(=O)Cc2cc(NS(=O)(=O)c3ccc(Cl)cc3)ccc2O[C@H]1CN(C)Cc1ccc(C(F)(F)F)cc1,-63.62
O=C(C[C@H]1CC[C@H]2[C@@H](COC[C@@H](O)CN2C(=O)Nc2ccc(C(F)(F)F)cc2)O1)NCC1CCCCC1,-69.76
CCCNC(=O)N1CC2(CCN(CC3CCCCC3)CC2)c2c(n(C)c3cc(OC)ccc23)[C@@H]1CO,-41.55
O=C(NC1CCCCC1)N1CC(=O)N2[C@H](CO)[C@@H](c3ccc(/C=C/c4ccccc4)cc3)[C@H]2C1,-52.98
C[C@H]1CN([C@@H](C)CO)S(=O)(=O)c2ccc(C#Cc3ccccc3)cc2O[C@@H]1CN(C)C(=O)Cc1ccccn1,-20.78
O=C(C[C@H]1CC[C@@H]2[C@H](COC[C@H](O)CN2S(=O)(=O)c2ccc(Cl)cc2)O1)NCc1ccc(Cl)c(Cl)c1,-39.17
Cc1ccc(S(=O)(=O)Nc2ccc3c(c2)CC(=O)N([C@@H](C)CO)C[C@H](C)[C@@H](CN(C)Cc2ccc(-c4ccccc4)cc2)O3)cc1,-48.07
CN1c2ccc(-c3ccc(C#N)cc3)cc2[C@H]2[C@H](CCN2C(=O)NC2CCCC2)[C@@H]1CO,-23.76
CC(C)CC#Cc1ccc2c(c1)O[C@@H](CN(C)CC1CCOCC1)[C@H](C)CN([C@@H](C)CO)S2(=O)=O,-46.55
COc1ccc(-c2ccc3c(c2)O[C@@H](CN(C)Cc2cccnc2)[C@H](C)CN([C@H](C)CO)S3(=O)=O)cc1,-70.64
C[C@@H]1CN([C@H](C)CO)C(=O)c2cc(NC(=O)Nc3ccc(F)cc3)ccc2O[C@@H]1CN(C)Cc1ccc(Oc2ccccc2)cc1,-59.53
O=C(C1=C[C@@H](c2csc3ccccc23)C[C@@H](OCc2ccc(CO)cc2)O1)N1CCN(Cc2ccc3c(c2)OCO3)CC1,-30.62
COc1ccc(S(=O)(=O)Nc2ccc3c(c2)C(=O)N([C@H](C)CO)C[C@H](C)[C@@H](CN(C)Cc2ccc(Cl)c(Cl)c2)OCCCC[C@@H](C)O3)cc1,-57.53
O=C(C[C@H]1CC[C@@H]2[C@H](COC[C@@H](O)CN2C(=O)Nc2ccc(Cl)c(Cl)c2)O1)NCc1ccc(F)cc1,-20.62
COc1ccc(CN(C)C[C@H]2OCCCC[C@@H](C)Oc3ccc(NC(=O)Nc4cccc5ccccc45)cc3C(=O)N([C@@H](C)CO)C[C@@H]2C)cc1,-34.6
COc1ccc(-c2ccc3c(c2)[C@@H]2[C@@H](CCN2C(=O)C2CCCC2)[C@H](CO)N3C)cc1,-66.76
C[C@@H]1CN([C@H](C)CO)C(=O)c2cc(NC(=O)CCC(F)(F)F)ccc2O[C@@H](C)CCCCO[C@@H]1CN(C)Cc1ccccc1,-33.22
COc1ccc(CN(C)C[C@@H]2OCCCC[C@H](C)Oc3ccc(NC(=O)Nc4ccc5c(c4)OCO5)cc3C(=O)N([C@H](C)CO)C[C@H]2C)cc1,-51.83
C[C@H]1CN([C@@H](C)CO)S(=O)(=O)c2ccc(C#CC3CCCC3)cc2O[C@H]1CN(C)CC1CC1,-62.8
C[C@@H]1CN([C@H](C)CO)C(=O)Cc2cc(NS(=O)(=O)c3ccc(Cl)cc3)ccc2O[C@@H]1CN(C)Cc1ccc(Cl)c(Cl)c1,-48.42
C[C@@H]1CN([C@@H](C)CO)C(=O)c2cccc(NC(=O)Nc3ccc(C(F)(F)F)cc3)c2O[C@H]1CN(C)S(=O)(=O)c1cccs1,-59.75
C[C@@H]1CN([C@@H](C)CO)C(=O)c2cc(-c3cncnc3)cnc2O[C@@H]1CN(C)Cc1ccc(Oc2ccccc2)cc1,-18.85
Cc1noc(C)c1NC(=O)N(C)C[C@@H]1Oc2cc(C#CCC(C)C)ccc2S(=O)(=O)N([C@@H](C)CO)C[C@@H]1C,-53.02

The first 2 entries again:

compound,activity change (Venus) (%)
Cc1ccc(S(=O)(=O)N(C)C[C@@H]2OCCCC[C@@H](C)Oc3ccc(NS(=O)(=O)c4ccc(F)cc4)cc3C(=O)N([C@H](C)CO)C[C@H]2C)cc1,-43.89
C[C@H]1CN([C@@H](C)CO)S(=O)(=O)c2ccc(C3=CCCCC3)cc2O[C@@H]1CN(C)Cc1cccc(C(=O)O)c1,-38.5

From PubChem BioAssay record AID1053133 (Broad Institute, 2014).